Consider 1 substance from PMC11514270.

Sequences of proteins named here, by UniProt entry; tags and fusion partners are left off. Residues count along the entry.
UniProt Q9H0J9: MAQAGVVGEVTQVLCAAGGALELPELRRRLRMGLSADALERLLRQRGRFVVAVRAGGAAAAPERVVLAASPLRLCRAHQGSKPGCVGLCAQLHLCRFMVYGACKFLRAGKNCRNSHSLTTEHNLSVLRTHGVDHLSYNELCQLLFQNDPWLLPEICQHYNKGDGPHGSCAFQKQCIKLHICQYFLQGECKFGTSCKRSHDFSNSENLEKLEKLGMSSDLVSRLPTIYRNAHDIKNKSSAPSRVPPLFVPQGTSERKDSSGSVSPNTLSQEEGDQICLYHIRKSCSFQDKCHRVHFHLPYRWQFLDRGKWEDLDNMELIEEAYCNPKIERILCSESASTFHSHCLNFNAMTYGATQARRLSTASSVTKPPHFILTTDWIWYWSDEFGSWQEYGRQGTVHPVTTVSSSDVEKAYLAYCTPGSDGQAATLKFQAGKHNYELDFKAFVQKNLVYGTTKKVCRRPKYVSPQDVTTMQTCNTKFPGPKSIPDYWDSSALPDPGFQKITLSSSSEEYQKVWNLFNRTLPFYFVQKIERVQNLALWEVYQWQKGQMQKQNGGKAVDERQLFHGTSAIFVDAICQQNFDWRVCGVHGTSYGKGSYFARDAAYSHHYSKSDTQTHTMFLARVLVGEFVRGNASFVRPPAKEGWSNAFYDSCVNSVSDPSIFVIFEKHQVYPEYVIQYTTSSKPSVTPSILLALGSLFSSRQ
UniProt P05161, residues 1-157: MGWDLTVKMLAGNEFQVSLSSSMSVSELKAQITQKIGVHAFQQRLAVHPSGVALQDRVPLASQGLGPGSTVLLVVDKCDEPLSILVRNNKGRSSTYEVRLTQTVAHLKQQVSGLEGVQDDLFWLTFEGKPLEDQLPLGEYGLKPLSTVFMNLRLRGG

These are yes or no findings as the source states them, for the method shown. Binding seen in cells or lysates may run through a third protein. These calls come from enrichment with a bait or labelling near it, and not all partners need be listed.

This assay addresses Poly (ADP-ribose) polymerase family member 12 (PARP12) (human (endogenous in primary human chondrocytes)) (UniProt Q9H0J9). Kind of assay: affinity purification with mass spectrometry; PHC lysate incubated with 1 ug anti-PARP12 antibody (ab241967) or normal rabbit IgG overnight at 4 °C, Protein A/G beads 2 h at room temperature, SDS-PAGE, silver staining, mass spectrometry.

On to “Interferon-stimulated gene 15 (ISG15) (from UniProt P05161 1-157)”, for which the binding entry is “binds”.
